Data reported in paper doi:10.1101/2020.08.04.236463.
These are yes or no findings as the source states them, for the method shown. Some binding calls cover weakened binding; strength is not graded here.

Target: human NHE1 R651-D692 (H2) (human) (UniProt P19634)
Assay: NMR chemical shifts against peptide concentration

With “human NHE1 R651-D692 (H2) (from UniProt P19634 651-692) (peptide)” the binding was “binds weakly”.
